Results published in patent US20070161644A1, “Erastin analogs and uses thereof” (priority 2005, published 2007).
Some results come without the dose or concentration used.

Test system: engineered cell lines
Experiment: Selectivity across the panel of engineered cell lines (calcein AM)
Format: cell-based, human
Settings: from selectivity ratio for each subsequent pair of cell lines in a series

| SMILES | Genetic basis of Selectivity |
| --- | --- |
| CC[C@@]1(O)C(=O)OCc2c1cc1n(c2=O)Cc2cc3ccccc3nc2-1 [Camptothecin] | RAS^v12/PP2A/ |
| COc1cccc2c1C(=O)c1c(O)c3c(c(O)c1C2=O)C[C@@](O)(C(C)=O)C[C@@H]3O[C@H]1C[C@H](N)[C@H](O)[C@H](C)O1 [Daunorubicin] | TERT/RB |
| COc1cccc2c1C(=O)c1c(O)c3c(c(O)c1C2=O)C[C@@](O)(C(=O)CO)C[C@@H]3O[C@H]1C[C@H](N)[C@H](O)[C@H](C)O1 [Doxorubicin] | TERT/RB |
| O=C1c2c(O)ccc(O)c2C(=O)c2c(NCCNCCO)ccc(NCCNCCO)c21 [Mitoxantrone] | TERT/RB |
